Some of the results follow.
What follows are compounds tested on T1, CTL2-GFP (C. trachomatis L2/434/Bu, GFP-expressing). Details: bulk GFP, single well; 28.5 h, 10 µM; inhibitor.
T1 construct: L2/434/Bu, GFP-expressing
Design: species or system HeLa; Intracellular C. trachomatis growth in HeLa cells, bulk GFP fluorescence relative to DMSO

| SMILES | % of control remaining [%] |
| --- | --- |
| Cn1c(=O)n(C)c2cc(S(=O)(=O)NCC3(N)CCOCC3)ccc21 [CBK306266] | 127.153 |
| OCCN1CCN(c2nccnc2-c2ccncc2)CC1 [CBK038084] | 119.167 |
| Cc1ccc(CN(C2CCN(C)CC2)S(=O)(=O)c2ccc(F)cc2F)cc1 [CBK160448T] | 145.004 |
| Cc1ccc(C(=O)COC(=O)c2cccc(C)c2O)cc1[N+](=O)[O-] [CBK264081] | 123.421 |
| CCC(C)(C)c1ccc(S(=O)(=O)N2CCCN(Cc3ccc4cccc(O)c4n3)CC2)cc1 [CBK063051] | 107.753 |
| Cc1[nH]c(=O)[nH]c(=O)c1CC(=O)N1CCCCC1CN1CCCCC1 (stereo not shown) [CBK286344] | 92.7113 |
| Cc1oc(-c2ccc(Cl)cc2)cc1C(=O)CC#N [CBK047603] | 134.295 |
| CCOc1ccc(-c2nc(N)ncc2Oc2ccc(OC)cc2)c(O)c1 [CBK288105] | 144.579 |
| O=C(Nc1nc2c(Br)cccc2s1)c1nc2ccccc2s1 [CBK287619] | 161.241 |
| O=C(Nc1ccc2c(c1)OCCO2)N1CCN(c2ccccc2)CC1 [CBK155187] | 163.189 |
| Cc1nc(Nc2ccc(Cl)cc2)nc(N2CCN(C)CC2)n1 [CBK023855] | 147.93 |
| CN(C)CCCN1C(=O)C(O)=C(C(=O)c2ccncc2)C1c1ccccc1 (stereo not shown) [CBK287779] | 100.486 |
| Clc1ccc(Nc2ncnc3c2cnn3-c2ccc(Cl)cc2)cc1 [CBK287356] | 133.832 |
| CCOC(=O)c1c(NC(=O)Cn2cnc([N+](=O)[O-])n2)sc2c1CCC(C)C2 (stereo not shown) [CBK263058] | 84.6318 |
| Cc1cnc2c(N3CCCC3)nc(-c3cccnc3)cn12 [CBK092277] | 119.158 |
| O=C1NC(=O)c2c(NC(=O)C3CCCCC3)cccc21 [CBK019837] | 126.812 |
| c1cnc(N2CCCC2)c(Sc2nc[nH]n2)n1 [CBK093737] | 112.839 |
| C=C[C@H]1C[N@@]2CC[C@H]1C[C@@H]2CNS(=O)(=O)c1ccc(NC(C)=O)cc1 [CBK288749] | 121.101 |
| Ic1cnn(Cc2nc(-c3ccccc3)no2)c1 [CBK269901] | 116.546 |
| C=CCNC(=O)CSc1nc2sc(C)c(C)c2c(=O)[nH]1 [CBK287350] | 105.528 |
| O=C(Cn1ccc2ccnc(-c3cccs3)c21)NCc1ccncc1 [CBK284734] | 118.107 |
| CN1CCN(c2cccc(-c3cc4ccccc4s3)n2)CC1 [CBK037019] | 163.04 |
| CC1CCCC(C)N1CC(O)COc1ccc(/N=C/c2ccccc2)cc1 (stereo not shown) [CBK261764] | 115.565 |
| COc1ccccc1-c1cc2nc(C)cc(N3CCOCC3)n2n1 [CBK304532] | 107.277 |
| Fc1ccccc1CN1CCC(Oc2nccnc2OCC2COc3ccccc3O2)CC1 (stereo not shown) [CBK082979T] | 110.049 |
| COc1ccc(CCN(C)C(=O)CCCc2cc3ccccc3[nH]2)cc1OC [CBK051152] | 160.36 |
| CC(=O)N1CCc2cc(C(O)CN3CCCC4CCCCC43)ccc21 (stereo not shown) [CBK282924] | 111.16 |

Structural class, those above with a nitro group on carbon

| SMILES | % of control remaining [%] |
| --- | --- |
| Cc1ccc(C(=O)COC(=O)c2cccc(C)c2O)cc1[N+](=O)[O-] [CBK264081] | 123.421 |
| CCOC(=O)c1c(NC(=O)Cn2cnc([N+](=O)[O-])n2)sc2c1CCC(C)C2 (stereo not shown) [CBK263058] | 84.6318 |

(list continues)

| SMILES | % of control remaining [%] |
| --- | --- |
| NS(=O)(=O)c1ccc(Nc2nc(-c3cccs3)cs2)cc1 [CBK262502] | 124.325 |
| CC(=O)Nc1cccc(NC(=O)c2cc(-c3ccncc3)nc3ccc(Cl)cc23)c1 [CBK267773] | 109.396 |
| Cc1ccccc1-c1ccccc1CC1(C(N)=O)CCN(C(=O)CC2CCCCC2)CC1 [CBK285723] | 123.775 |
| CN(C)CCCNC(=O)c1cccc(Nc2cncc(-c3ccc(O)cc3)n2)c1 [CBK122669] | 137.419 |
| COc1ccc(-c2nc(NC(=O)c3ccc(S(N)(=O)=O)cc3)cnc2-c2cccc(C)c2)cc1 [CBK037559] | 188.501 |
| Cc1ccc(-n2c(SCC(=O)N3CCOCC3)nnc2-c2ccccc2O)c(C)c1 [CBK269112] | 137.588 |
| CC(=O)NCC(=O)N1CCC[C@@H]2[C@H]1CCCCc1ccccc1OCC(=O)N2C [CBK292011] | 81.7838 |
| CN(Cc1ccc(-c2ccc(S(C)(=O)=O)cc2)nc1)C1CCN(C(=O)CC2CCCCC2)CC1 [CBK164105T] | 104.217 |
| OCc1ccccc1-c1cn2ccnc2c(N[C@@H]2CCN(Cc3ccccc3)C2)n1 [CBK037969] | 173.494 |
| OCc1ccc(-n2cc(-c3ccc(F)cc3F)nn2)cc1 [CBK112982] | 130.186 |
| CCn1c2ccccc2c2cc(C#N)c(=O)[nH]c21 [CBK013595] | 115.423 |
| COc1ccccc1CC(=O)N1CCC(Cc2ccc(-c3ccccc3)cc2)(C(N)=O)CC1 [CBK285777] | 144.106 |
| O=C(NCCc1nc2cccnc2n1-c1ccccc1)c1ccncc1 [CBK288599] | 105.187 |
| COc1cc(C)c(C)cc1S(=O)(=O)n1ccnc1C [CBK287579] | 104.47 |
| O=c1c2snc(-c3ccc(F)cc3)c2ncn1C1CC1 [CBK282859] | 81.4777 |
| Cc1cc(O)ccc1C(CC(=O)O)c1ccccc1 (stereo not shown) [CBK013350] | 141.289 |
| CC(=O)Nc1cc(S(=O)(=O)N2CCOCC2)c(Br)cc1C [CBK034334] | 154.531 |
| CN(C)CCN(C)c1ccc(-c2ccc(F)c(Cl)c2)cn1 [CBK036979] | 172.495 |
| O=C(CCn1c(=O)oc2ccccc21)N1CC=C(c2ccc(F)cc2)CC1 [CBK295602] | 137.182 |
| CN(C)CCCNC(=O)c1ccnc(/C=N/O)c1 [CBK288434] | 113.937 |
| O=C(O)c1sc2ncccc2c1NS(=O)(=O)c1ccc(C(F)(F)F)cc1[N+](=O)[O-] [CBK050647] | 95.9685 |
| CC(=O)Nc1ccc2nc(NC(=O)c3ccc4c(c3)OCCO4)sc2c1 [CBK287571] | 90.4678 |
| CC(Cc1cccs1)NC(=O)CSCc1ccco1 (stereo not shown) [CBK283238] | 132.369 |
| Cc1ccc(NC(=O)N2CCCC(CO)C2)cc1 (stereo not shown) [CBK156065] | 105.473 |
| c1ccc(C(=NCCN=C(c2ccccc2)c2ccccc2)c2ccccc2)cc1 [CBK262065] | 90.85 |
| O=C(C1CCCN(c2ccc3nncn3n2)C1)N1CCOCC1 (stereo not shown) [CBK287901] | 126.094 |
| Nc1ncc(CN(Cc2ccco2)CC(O)Cn2c3ccccc3c3ccccc32)cn1 (stereo not shown) [CBK286462] | 121.346 |

| SMILES | % of control remaining [%] |
| --- | --- |
| COc1ccc(Cl)cc1N1CCN(CCCn2c(=O)[nH]c3ccccc32)CC1 [CBK138338] | 125.222 |
| Cc1c(S(=O)(=O)N2CCN(C3CCN(C)CC3)CC2)sc2ccc(C(C)C)cc12 [CBK170352] | 105.234 |
| CC(=O)NCc1cccc(-c2cc(C(=O)Nc3ccc4c(c3)OCCO4)cnc2-c2cccnc2)c1 [CBK160658] | 117.837 |
| COc1ccc(S(=O)(=O)N2CCC3(CC2)CC(=O)c2ccc(C)cc2O3)cc1OC [CBK166515] | 135.079 |
| CC1CCN(CC(=O)Nc2sc3c(c2C(=O)NCc2ccccc2)CCCC3)CC1 [CBK268387] | 77.3073 |
| CCc1cc2c(NC(CCSC)C(=O)O)nc(C)nc2s1 (stereo not shown) [CBK266709] | 130.816 |
| O=C1CCC(=O)N1Cc1cccc(-c2ccnc(NS(=O)(=O)c3ccc(Cl)cc3)n2)c1 [CBK067436] | 106.614 |
| O=C(/C=C/c1ccco1)Nc1sc2c(c1C(=O)O)CCC2 [CBK263181] | 114.751 |
| O=C(CCn1c(-c2cccnc2)cc2cccnc21)NC1CCCCC1 [CBK282647] | 126.898 |
| CC(C)CNc1n[nH]c(=S)s1 [CBK016865] | 103.688 |
| CC(C)c1cc(C(=O)N(C)Cc2cccc3ncccc23)n(C)n1 [CBK282567] | 108.026 |
| COc1ccc(F)c(CN(CC2CCNCC2)C(=O)Nc2c(C)noc2C)c1 [CBK049811] | 80.9977 |
| CNC(=O)c1ccc(-c2cccc(OC(F)(F)F)c2)nc1NCCOC [CBK106000] | 152.854 |
| C/C(=C1/SC(=S)N(c2cccc(C(=O)O)c2)C1=O)c1cccc([N+](=O)[O-])c1 [CBK265168] | 119.678 |
| Fc1cnc(Nc2ccccc2)nc1N1CCOCC1 [CBK287279] | 138.354 |
| Cc1cc(C)c(C)c(S(=O)(=O)N2CCN(c3ncnc4sc(C)c(C)c34)CC2)c1C [CBK265297] | 121.55 |
| CCCC/C=C/c1cncc(NC(C)CCCC(C)(C)O)n1 (stereo not shown) [CBK065505] | 182.487 |
| C/N=C1/SC(CC(=O)Nc2cccc(C(=O)O)c2)C(=O)N1C (stereo not shown) [CBK265581] | 100 |
| Cn1cc(-c2ncc(OCCc3cccs3)nc2N)cn1 [CBK145167] | 152.166 |
| Cn1ccnc1CN(Cc1ccccc1)C1CC(C)(C)NC(C)(C)C1 [CBK283177] | 109.098 |
| O=C(Nc1nnc(C2=COCCO2)o1)c1ccc(-c2ccccc2)cc1 [CBK287407] | 146.777 |
| COc1cc(CNc2ccc(N3CCOCC3)cc2)ccc1OCc1ccc(Cl)cc1Cl [CBK074516] | 85.6895 |
| CC(C)c1nc(NCCc2nnc3n2CCC3)nc(N(C)C)n1 [CBK306409] | 135.623 |
| Cc1n[nH]c(C)c1CCC(=O)N/N=C/c1ccncc1 [CBK262888] | 100 |
| COC(=O)c1c(C(C)(C)C)c(O)c2ccoc2c1OC [CBK007577] | 100 |

Retrieved one by one from the list above, 2 records:

| SMILES | % of control remaining [%] |
| --- | --- |
| CCCC/C=C/c1cncc(NC(C)CCCC(C)(C)O)n1 (stereo not shown) [CBK065505] | 182.487 |
| COc1ccc(Cl)cc1N1CCN(CCCn2c(=O)[nH]c3ccccc32)CC1 [CBK138338] | 125.222 |

Reference: publication PMC12040169 (PLOS Biology, 2025)
